The assay deals with T1, extracellular domain (ECD) of the human RNF43 protein, biotinylated (human) (UniProt Q68DV7).
T1 sequence (chain, biotin (EZ-link-NHS-PEG4-biotin), 1–2 biotin molecules per protein): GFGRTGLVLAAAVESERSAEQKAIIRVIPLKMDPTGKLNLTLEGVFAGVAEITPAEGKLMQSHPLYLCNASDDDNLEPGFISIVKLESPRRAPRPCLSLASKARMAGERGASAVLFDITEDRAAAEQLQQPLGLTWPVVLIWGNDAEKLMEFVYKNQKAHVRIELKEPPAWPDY
In words: ELISA; competition: biotinylated RNF43 on neutravidin plate; 1 nM His-tagged RSPO2 mixed with 0–2 μM DCPs, 45 min at RT; bound RSPO2 detected with HRP-conjugated His antibody; both purified.

Amino acid sequences for entries named in this document (tags omitted). Residues count along the entry.
UniProt Q6UXX9, residues 22-243: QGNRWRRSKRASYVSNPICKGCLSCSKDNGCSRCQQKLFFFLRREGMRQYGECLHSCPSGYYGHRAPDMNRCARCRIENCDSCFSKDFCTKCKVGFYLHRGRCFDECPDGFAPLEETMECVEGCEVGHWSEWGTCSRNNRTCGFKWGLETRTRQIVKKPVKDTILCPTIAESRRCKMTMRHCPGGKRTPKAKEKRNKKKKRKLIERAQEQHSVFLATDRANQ

No constants are given. Whether binding was seen depends on the method and setting. Some binding calls cover weakened binding; strength is not graded here.

For the substance “His-tagged RSPO2 (from UniProt Q6UXX9 22-243) (ligand)”, the binding result is recorded as “binds”.

The values are drawn from PMC12464775, “Selective and Potent Peptide Binders of RNF43 for Wnt Signaling Inhibition” (ACS Central Science, 2025).
